The nature of the data set: general procedure: Fmoc solid-phase peptide synthesis; Rink amide resin (100–200, 0.25 mmol/g); 2-Chlorotrityl resin; HCTU/DIPEA. To be noted: whole synthesis, 214 nm, scale of the general procedure 100 μmol, TFA salt (peptides, PNAs); formic acid salt (conjugates).
“CINA-PEG-Cyt-Gua-Ade-Thy-Cyt-Ade-Thy-Thy-Cyt-Ade-Ade-Ade-Lys-NH2”: the “final purity (method not given)” value amounted to 87.96%.

For “CINA-PEG-Cyt-Thy-Cyt-Ade-Thy-Ade-Cyt-Thy-Cyt-Thy-Lys-NH2”, the “final purity (method not given)” value is listed as 97.67%.

In the case of “CINA-PEG-Gly-Lys-Pro-Arg-Pro-Tyr-Ser-Pro-Arg-Pro-Thr-Ser-His-Pro-Arg-Pro-Ile-Arg-Arg-NH2”, the “final purity (method not given)” value was 95.46%.

As for “CINA-PEG-OctGly-Dab-Thr-Dab-Dab ^b -Dab-D-Phe-Leu-Dab-Dab-Thr ^b”, the “final purity (method not given)” value stood at 96.51%.

Regarding “CINA-PEG-Thy-Cyt-Cyt-Ade-Thy-Thy-Ade-Thy-Thy-Gau-Lys-NH2”, the “final purity (method not given)” value is on record as 96.18%.

Consider “CINA-PEG-Thy-Thy-Thy-Cyt-Thy-Cyt-Gua-Thy-Cyt-Ade-Lys-NH2”, for which the “final purity (method not given)” value worked out at 98.58%.

Take “CINA-PEG-Val-Cys ^d -Lys-Arg-trp-Lys-Lys-Trp-Lys-Arg-Lys-Trp-Lys-Lys-Trp-Cys ^d -Val-NH2”: the “final purity (method not given)” value came out at 96.20%.

For “Cys-PEG-Cyt-Thy-Cyt-Ade-Thy-Ade-Cyt-Thy-Cyt-Thy-Thy-Gua-Lys-NH2”, the “final purity (method not given)” value is 98.93%.

“Cys-PEG-OctGly-Dab-Thr-Dab-Dab ^b -Dab-D-Phe-Leu-Dab-Dab-Thr ^b”: the “final purity (method not given)” value is reported as 95.05%.

Regarding “H-Arg-Acp-Arg-Arg-Acp-Arg-Arg-Acp-Arg-Arg-Acp-Arg-PEG-Lys (CINA)-NH2”, the “final purity (method not given)” value was determined as 92.85%.
